# Results from the supplement of paper PMC8728848.
# The other results are listed elsewhere or left out.
# B1: Epf (Streptococcus pyogenes) (protein)
# chain: GDHGPEFNGVMVVKAAEAEELPDDLMNFKGTWEVSADGSSGRFFSKGATDSYVFHLIPAKDVKKPGWREHNEVKDSYIKIDKQSIAARYKTSTTAPYSVAFKVNTKSLIKDHDYKITFEQGQIASGITVDYRIGSAFNKTTDDSFKISDESKYASNVKIEGEEQGFKQREQGDKTISFRTLKEGPMSLVLLSKVEKKPQGDLDVEFKNLKIIDVTNPSQLDKGVAYVGNKNVQLTLKSDDGRTNFEGDEISLFNSRGELLQTVTVTKDQQNPISITLSEDQAKSLKNKEKLKVSIKQKQSKKTSKDFFFEVGIDPKVEAKQKEKLLELDKVKKQIEDSINGDAWLPEKPVDLQGDHGLSAWSHPQFEK
# Key:
# Experiment in all cases: glycan array binding signal (z-score within array); higher = stronger binding
# Details in all cases: glycan notation: IUPAC condensed, linker removed
# Gal(b1-3)Gal = target: Gal(b1-3)Gal
# Method in brief: (§1)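 Arrays were curated from the Consortium for Functional Glycomics database, 3228 in total, and kept only where the protein sequence was available. Binding is expressed as a within-array Z-score. This score was averaged across arrays of the same protein sequence at different concentrations or buffers and across linkers, and negative values can be read as non-binding.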
# Gal(b1-3)Gal(b1-4)GlcNAc = target: Gal(b1-3)Gal(b1-4)GlcNAc
# Method in brief: as §1
# Gal(b1-3)GalNAc = target: Gal(b1-3)GalNAc
# Method in brief: as §1
# [1] = target: Gal(b1-3)GalNAc(a1-3)[Fuc(a1-2)]Gal(b1-4)Glc
# Method in brief: as §1
# [2] = target: Gal(b1-3)GalNAc(a1-3)[Fuc(a1-2)]Gal(b1-4)GlcNAc
# Method in brief: as §1
# Gal(b1-3)GalNAc(b1-3)Gal = target: Gal(b1-3)GalNAc(b1-3)Gal
# Method in brief: as §1
# [3] = target: Gal(b1-3)GalNAc(b1-3)Gal(a1-4)Gal(b1-4)Glc
# Method in brief: as §1
# [4] = target: Gal(b1-3)GalNAc(b1-4)Gal(b1-4)Glc
# Method in brief: as §1
# [5] = target: Gal(b1-3)GalNAc(b1-4)[Neu5Ac(a2-3)]Gal(b1-4)Glc
# Method in brief: as §1
# Gal(b1-3)GlcNAc = target: Gal(b1-3)GlcNAc
# Method in brief: as §1
# [6] = target: Gal(b1-3)GlcNAc(a1-3)Gal(b1-4)GlcNAc
# Method in brief: as §1
# [7] = target: Gal(b1-3)GlcNAc(a1-6)Gal(b1-4)GlcNAc
# Method in brief: as §1
# Gal(b1-3)GlcNAc(b1-2)Man = target: Gal(b1-3)GlcNAc(b1-2)Man
# Method in brief: as §1
# [8] = target: Gal(b1-3)GlcNAc(b1-2)Man(a1-3)[Gal(b1-3)GlcNAc(b1-2)Man(a1-6)]Man(b1-4)GlcNAc(b1-4)GlcNAc
# Method in brief: as §1
# [9] = target: Gal(b1-3)GlcNAc(b1-2)Man(a1-3)[Gal(b1-3)GlcNAc(b1-2)Man(a1-6)]Man(b1-4)GlcNAc(b1-4)[Fuc(a1-6)]GlcNAc
# Method in brief: as §1
# [10] = target: Gal(b1-3)GlcNAc(b1-2)Man(a1-3)[GlcNAc(b1-4)][Gal(b1-3)GlcNAc(b1-2)Man(a1-6)]Man(b1-4)GlcNAc(b1-4)GlcNAc
# Method in brief: as §1
# [11] = target: Gal(b1-3)GlcNAc(b1-2)[Gal(b1-3)GlcNAc(b1-6)]Man(a1-6)[Gal(b1-3)GlcNAc(b1-2)Man(a1-3)]Man(b1-4)GlcNAc(b1-4)GlcNAc
# Method in brief: as §1
# [12] = target: Gal(b1-3)GlcNAc(b1-3)Gal(b1-3)GlcNAc
# Method in brief: as §1
# [13] = target: Gal(b1-3)GlcNAc(b1-3)Gal(b1-4)Glc
# Method in brief: as §1
# [14] = target: Gal(b1-3)GlcNAc(b1-3)Gal(b1-4)GlcNAc
# Method in brief: as §1
# [15] = target: Gal(b1-3)GlcNAc(b1-3)Gal(b1-4)GlcNAc(b1-2)Man(a1-3)[Gal(b1-3)GlcNAc(b1-3)Gal(b1-4)GlcNAc(b1-2)Man(a1-6)]Man(b1-4)GlcNAc(b1-4)GlcNAc
# Method in brief: as §1
# [16] = target: Gal(b1-3)GlcNAc(b1-3)Gal(b1-4)GlcNAc(b1-2)[Gal(b1-3)GlcNAc(b1-3)Gal(b1-4)GlcNAc(b1-6)]Man(a1-6)[Gal(b1-3)GlcNAc(b1-3)Gal(b1-4)GlcNAc(b1-2)Man(a1-3)]Man(b1-4)GlcNAc(b1-4)[Fuc(a1-6)]GlcNAc
# Method in brief: as §1
# [17] = target: Gal(b1-3)GlcNAc(b1-3)Gal(b1-4)GlcNAc(b1-3)Gal(b1-4)GlcNAc(b1-2)[Gal(b1-3)GlcNAc(b1-3)Gal(b1-4)GlcNAc(b1-3)Gal(b1-4)GlcNAc(b1-6)]Man(a1-6)[Gal(b1-3)GlcNAc(b1-3)Gal(b1-4)GlcNAc(b1-3)Gal(b1-4)GlcNAc(b1-2)Man(a1-3)]Man(b1-4)GlcNAc(b1-4)[Fuc(a1-6)]GlcNAc
# Method in brief: as §1
# [18] = target: Gal(b1-3)GlcNAc(b1-3)Gal(b1-4)GlcNAc(b1-6)[Gal(b1-3)GlcNAc(b1-3)]Gal(b1-4)Glc
# Method in brief: as §1
# [19] = target: Gal(b1-3)GlcNAc(b1-3)Gal(b1-4)[Fuc(a1-3)]GlcNAc(b1-6)[Gal(b1-3)GlcNAc(b1-3)]Gal(b1-4)Glc
# Method in brief: as §1
# [20] = target: Gal(b1-3)GlcNAc(b1-3)GalNAc
# Method in brief: as §1
# [21] = target: Gal(b1-3)GlcNAc(b1-6)Gal(b1-4)GlcNAc
# Method in brief: as §1
# [22] = target: Gal(b1-3)GlcNAc(b1-6)GalNAc
# Method in brief: as §1
# [23] = target: Gal(b1-3)GlcNAc(b1-6)[Gal(b1-3)]GalNAc
# Method in brief: as §1
# Gal(b1-3)GlcNAc6S = target: Gal(b1-3)GlcNAc6S
# Method in brief: as §1
# [24] = target: Gal(b1-3)[Fuc(a1-4)]GlcNAc
# Method in brief: as §1
# [25] = target: Gal(b1-3)[Fuc(a1-4)]GlcNAc(b1-2)Man
# Method in brief: as §1
# [26] = target: Gal(b1-3)[Fuc(a1-4)]GlcNAc(b1-2)Man(a1-3)[Gal(b1-3)[Fuc(a1-4)]GlcNAc(b1-2)Man(a1-6)]Man(b1-4)GlcNAc(b1-4)[Fuc(a1-6)]GlcNAc
# Method in brief: as §1
# [27] = target: Gal(b1-3)[Fuc(a1-4)]GlcNAc(b1-3)Gal(b1-3)[Fuc(a1-4)]GlcNAc
# Method in brief: as §1
# [28] = target: Gal(b1-3)[Fuc(a1-4)]GlcNAc(b1-3)Gal(b1-4)GlcNAc
# Method in brief: as §1
# [29] = target: Gal(b1-3)[Fuc(a1-4)]GlcNAc(b1-3)Gal(b1-4)[Fuc(a1-3)]GlcNAc
# Method in brief: as §1
# [30] = target: Gal(b1-3)[Fuc(a1-4)]GlcNAc(b1-6)GalNAc
# Method in brief: as §1
binder,measurement,setting,value
B1,glycan array binding signal (z-score),Gal(b1-3)Gal,0.665
same,glycan array binding signal (z-score),Gal(b1-3)Gal(b1-4)GlcNAc,0.618
same,glycan array binding signal (z-score),Gal(b1-3)GalNAc,0.189
same,glycan array binding signal (z-score),[1],0.846
same,glycan array binding signal (z-score),[2],1.04
same,glycan array binding signal (z-score),Gal(b1-3)GalNAc(b1-3)Gal,0.131
same,glycan array binding signal (z-score),[3],0.325
same,glycan array binding signal (z-score),[4],-0.182
same,glycan array binding signal (z-score),[5],-0.938
same,glycan array binding signal (z-score),Gal(b1-3)GlcNAc,-0.762
same,glycan array binding signal (z-score),[6],-0.486
same,glycan array binding signal (z-score),[7],-0.243
same,glycan array binding signal (z-score),Gal(b1-3)GlcNAc(b1-2)Man,1.06
same,glycan array binding signal (z-score),[8],-0.502
same,glycan array binding signal (z-score),[9],-2.14
same,glycan array binding signal (z-score),[10],0.69
same,glycan array binding signal (z-score),[11],0.299
same,glycan array binding signal (z-score),[12],-0.13
same,glycan array binding signal (z-score),[13],0.13
same,glycan array binding signal (z-score),[14],-1.43
same,glycan array binding signal (z-score),[15],-0.269
same,glycan array binding signal (z-score),[16],1.64
same,glycan array binding signal (z-score),[17],0.062
same,glycan array binding signal (z-score),[18],2.25
same,glycan array binding signal (z-score),[19],3.16
same,glycan array binding signal (z-score),[20],-0.5
same,glycan array binding signal (z-score),[21],-0.606
same,glycan array binding signal (z-score),[22],-1.04
same,glycan array binding signal (z-score),[23],0.349
same,glycan array binding signal (z-score),Gal(b1-3)GlcNAc6S,-1.28
same,glycan array binding signal (z-score),[24],0.268
same,glycan array binding signal (z-score),[25],-0.741
same,glycan array binding signal (z-score),[26],0.179
same,glycan array binding signal (z-score),[27],-1.88
same,glycan array binding signal (z-score),[28],-0.641
same,glycan array binding signal (z-score),[29],-0.197
same,glycan array binding signal (z-score),[30],0.662

# Two neighbouring records already listed, for reference:
binder,measurement,setting,value
B1,glycan array binding signal (z-score),[11],0.299
same,glycan array binding signal (z-score),[12],-0.13
